Here are results for six test systems from the supplement of paper PMC10331698.

What all share (assay): level (log10 ratio to DMSO vehicle control); higher = higher biomarker level / cell amount than vehicle control
Compound in experiment [1]: C=CC(=O)OCC(F)(F)C(F)(F)C(F)(F)COC(=O)C=C [1H,1H,5H,5H-Perfluoro-1,5-pentanediol diacrylate]
As to conditions: 2200 nM; in DMSO. As to the method: (§1)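 BioMAP Diversity Plus panel of 12 human primary cell co-culture systems (3C, 4H, LPS, SAg, BT, BF4T, BE3C, CASM3C, HDF3CGF, KF3CT, MyoF, Mphg). Compounds were added 1 h before stimulation and left for 24 h (MyoF 48 h; BT 72 h for soluble read-outs or 6 d for IgG). Biomarkers were read by ELISA, cytotoxicity by SRB, PBMC viability and proliferation by Alamar Blue. Each well value was divided by the mean of 8 DMSO control wells on the same plate and log10 transformed; duplicate blinded samples were tested at 4 concentrations.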

Compound in experiment [2]: C=CC(=O)OCCC(F)(F)C(F)(F)C(F)(F)C(F)(F)C(F)(F)C(F)(F)C(F)(F)C(F)(F)F [8:2 Fluorotelomer acrylate]
As to conditions: 2200 nM; in DMSO. As to the method:
as §1

Compound in experiment [3]: C=CC(=O)OCCC(F)(F)C(F)(F)C(F)(F)C(F)(F)F [2-(Perfluorobutyl)ethyl acrylate]
Conditions: 2200 nM; in DMSO. As to the method:
as §1

Compound in experiment [4]: FC(F)(F)C(F)(C(F)(F)F)C(F)(F)C(F)(F)CC1CO1 [3-(Perfluoro-3-methylbutyl)-1,2-propenoxide]
As to conditions: in DMSO. As to the method: as §1

Compound in experiment [5]: FC(F)(F)C(F)(F)C(F)(F)C(F)(F)C(F)(F)C(F)(F)I [Perfluoro-1-iodohexane]
As to conditions: in DMSO. As to the method: as §1

Compound in experiment [6]: FC(F)(I)C(F)(F)C(F)(F)C(F)(F)C(F)(F)C(F)(F)I [1,6-Diiodoperfluorohexane]
Conditions: 2200 nM; in DMSO. As to the method:
as §1

Compound in experiment [7]: O=C(Cl)C(F)(F)C(F)(F)C(F)(F)C(=O)Cl [Hexafluoroglutaryl chloride]
As to conditions: 2200 nM; in DMSO. As to the method: as §1

Compound in experiment [8]: O=C(O)C(F)(F)C(F)(F)C(F)(F)C(F)(F)C(F)(F)C(F)(F)C(F)(F)C(F)(F)C(F)(F)C(F)(F)C(F)(F)C(F)(F)C(F)(F)F [Perfluorotetradecanoic acid]
As to conditions: in DMSO. As to the method: as §1

Compound in experiment [9]: O=C(O)C=C(C(F)(F)F)C(F)(F)F [3,3-Bis(trifluoromethyl)-2-propenoic acid]
As to conditions: in DMSO. As to the method: as §1

Compound in experiment [10]: O=S(=O)(O)C(F)(F)C(F)(F)C(F)(F)C(F)(F)C(F)(F)C(F)(F)F [Perfluorohexanesulfonic acid]
Conditions: 2200 nM; in DMSO. As to the method: as §1

Compound in experiment [11]: O=S(=O)(O)CCC(F)(F)C(F)(F)C(F)(F)C(F)(F)F [4:2 Fluorotelomer sulfonic acid]
Conditions: 2200 nM; in DMSO. As to the method: as §1

Compound in experiment [12]: OCC(F)(F)C(F)(F)C(F)(F)CO [Hexafluoroamylene glycol]
Conditions: 2200 nM; in DMSO. As to the method: as §1

Compound in experiment [13]: OCCCC(F)(F)C(F)(F)C(F)(F)C(F)(F)C(F)(F)C(F)(F)C(F)(F)F [7:3 Fluorotelomer alcohol]
As to conditions: 2200 nM; in DMSO. As to the method: as §1

± gives the standard deviation of the averaged measurements. Most values lie at the level of the controls, where differences are scatter.

As to MyoF:SRB, the “level (log10)” value in [1] is -0.007 ± 0.0057; in experiment [2], 0.0055 ± 0.0078; in [3], 0.01 ± 0.023; in experiment [4] (740 nM), 0.002 ± 0.0057; in experiment [4] (2200 nM) it was -0.0035 ± 0.005; in experiment [5] (2200 nM) it was 0 ± 0.0057. The “level (log10)” value in experiment [5] (6700 nM) is -0.0405 ± 0.05; in experiment [5] (20000 nM) it was -0.263 ± 0.16; in [5] (60000 nM), -0.712 ± 0.15; in experiment [6] it was 0.0035 ± 0.0035; in experiment [7], 0 ± 0.0028; in experiment [8] (740 nM) it was -0.0015 ± 0.0021. Further, the “level (log10)” value is 0.005 ± 0.0042 in experiment [8] (2200 nM); 0.0105 ± 0.013 in [9] (2200 nM); 0.0005 ± 0.012 in experiment [9] (6700 nM); -0.005 ± 0.0014 in experiment [9] (20000 nM); -0.024 ± 0.0071 in experiment [9] (60000 nM); 0.0015 ± 0.00071 in [10]. Moreover, the figures for the “level (log10)” value in [11], in experiment [12] and in [13] were -0.001 ± 0.0042, -0.0005 ± 0.0078 and 0.013 ± 0.0014, respectively.

As to SAg:CD69, the “level (log10)” value in experiment [1] was -0.0275 ± 0.098; in experiment [2], -0.015 ± 0.03; in experiment [3] it was -0.018 ± 0.0042; in [4] (740 nM), -0.0015 ± 0.043; in experiment [4] (2200 nM) it was -0.0005 ± 0.037; in experiment [5] (2200 nM), -0.0265 ± 0.013. In addition, the “level (log10)” value was -0.0155 ± 0.033 in experiment [5] (6700 nM); -0.017 ± 0.024 in experiment [5] (20000 nM); 0.006 ± 0.0014 in experiment [5] (60000 nM); -0.0155 ± 0.016 in experiment [6]; -0.0205 ± 0.025 in [7]; 0.0125 ± 0.018 in experiment [8] (740 nM). Besides, the “level (log10)” value is -0.018 ± 0.0071 in experiment [8] (2200 nM); -0.007 ± 0.0057 in experiment [9] (2200 nM); -0.0145 ± 0.013 in [9] (6700 nM); -0.0615 ± 0.0092 in [9] (20000 nM); -0.171 ± 0.0014 in experiment [9] (60000 nM); -0.0145 ± 0.005 in experiment [10]. Further, the “level (log10)” value in experiment [11] was -0.0165 ± 0.025; in experiment [12] it was -0.0155 ± 0.022; in experiment [13], -0.026 ± 0.018.

Turning to BE3C:CD54/ICAM-1, the “level (log10)” value in experiment [1] is 0.002; in experiment [2] it was 0.005 ± 0.042; in [3], 0.0015 ± 0.021; in experiment [4] (740 nM), -0.022 ± 0.042; in [4] (2200 nM), -0.013 ± 0.013; in experiment [5] (2200 nM), -0.003 ± 0.027. The “level (log10)” value in [5] (6700 nM) was -0.006 ± 0.0014; in [5] (20000 nM), -0.0125 ± 0.015; in [5] (60000 nM), -0.005 ± 0.014; in experiment [6], 0.0045 ± 0.016; in experiment [7] it was 0.0215 ± 0.0035; in experiment [8] (740 nM), 0.012 ± 0.013. For the same test system, the “level (log10)” value in experiment [8] (2200 nM) was -0.003 ± 0.017; in experiment [9] (2200 nM) it was 0.007 ± 0.02; in experiment [9] (6700 nM), -0.004 ± 0.017; in experiment [9] (20000 nM), 0.0025 ± 0.0021; in experiment [9] (60000 nM), 0.031 ± 0.04; in experiment [10], 0.008 ± 0.013. Also, the “level (log10)” value in experiment [11] is -0.006 ± 0.0042; in experiment [12], -0.0025 ± 0.0021; in experiment [13], 0.004 ± 0.011.

Regarding lMphg:IL-1alpha, the “level (log10)” value was 0.061 ± 0.011 in experiment [1]; -0.003 ± 0.05 in [2]; 0.0145 ± 0.076 in experiment [3]; -0.0135 ± 0.03 in experiment [4] (740 nM); -0.0505 ± 0.019 in experiment [4] (2200 nM); 0.0225 ± 0.015 in experiment [5] (2200 nM). In addition, the “level (log10)” value is 0.008 ± 0.0057 in experiment [5] (6700 nM); 0.0525 ± 0.019 in experiment [5] (20000 nM); 0.027 ± 0.011 in [5] (60000 nM); -0.001 ± 0.12 in experiment [6]; -0.034 ± 0.0085 in experiment [7]; 0.0155 ± 0.03 in experiment [8] (740 nM). In addition, the “level (log10)” value is -0.0065 ± 0.019 in [8] (2200 nM); -0.0385 ± 0.023 in experiment [9] (2200 nM); -0.073 ± 0.068 in experiment [9] (6700 nM); -0.0565 ± 0.052 in experiment [9] (20000 nM); -0.043 ± 0.075 in experiment [9] (60000 nM); 0.0175 ± 0.077 in experiment [10]. The figures for the “level (log10)” value in experiment [11], in experiment [12] and in experiment [13] were 0.04 ± 0.09, -0.006 ± 0.027 and 0.0225 ± 0.018, respectively.

With LPS:CD106/VCAM-1, the “level (log10)” value in experiment [1] was -0.0215 ± 0.0064; in experiment [2] it was -0.0165 ± 0.016; in experiment [3] it was -0.016 ± 0.025; in experiment [4] (740 nM), -0.001 ± 0.0085; in experiment [4] (2200 nM) it was -0.004 ± 0.011; in experiment [5] (2200 nM) it was -0.039 ± 0.0071. Moreover, the “level (log10)” value is -0.031 ± 0.0057 in experiment [5] (6700 nM); -0.0145 ± 0.018 in experiment [5] (20000 nM); -0.029 ± 0.0028 in [5] (60000 nM); -0.0215 ± 0.023 in experiment [6]; -0.004 ± 0.02 in experiment [7]; 0.0275 ± 0.013 in experiment [8] (740 nM). The “level (log10)” value in experiment [8] (2200 nM) was -0.0045 ± 0.036; in experiment [9] (2200 nM), -0.0635 ± 0.032; in [9] (6700 nM), -0.106 ± 0.021; in experiment [9] (20000 nM), -0.141 ± 0.018; in experiment [9] (60000 nM), -0.244 ± 0.069; in experiment [10], -0.007 ± 0.0042. Besides, the results for the “level (log10)” value in experiment [11], in [12] and in [13] were 0.0195 ± 0.012, -0.003 ± 0.068 and -0.0485 ± 0.021, respectively.

Turning to HDF3CGF:Collagen III, the “level (log10)” value in [1] is -0.165 ± 0.096; in experiment [2] it was 0.0345 ± 0.05; in experiment [3] it was -0.006 ± 0.0042; in [4] (740 nM), -0.011 ± 0.0099; in experiment [4] (2200 nM), -0.028 ± 0.054; in experiment [5] (2200 nM), -0.0075 ± 0.081. Also, the “level (log10)” value in experiment [5] (6700 nM) was -0.0405 ± 0.066; in [5] (20000 nM) it was -0.0755 ± 0.0021; in experiment [5] (60000 nM) it was -0.178 ± 0.13; in experiment [6], -0.0985 ± 0.019; in experiment [7] it was 0.005 ± 0.034; in experiment [8] (740 nM), -0.037 ± 0.038. The “level (log10)” value in [8] (2200 nM) is -0.0905 ± 0.023; in experiment [9] (2200 nM) it was -0.0485 ± 0.037; in experiment [9] (6700 nM) it was -0.0905 ± 0.012; in experiment [9] (20000 nM) it was -0.0985 ± 0.029; in experiment [9] (60000 nM), -0.0635 ± 0.069; in experiment [10] it was 0.0045 ± 0.011. The figures for the “level (log10)” value in experiment [11], in [12] and in experiment [13] were -0.0255 ± 0.091, -0.0335 ± 0.04 and 0.0125 ± 0.06, respectively.
